These are yes or no findings as the source states them, for the method shown. Some entries that bind do so weakly or less than the wild type.
How the values were obtained:
[1] = biological target: human serum albumin Domain I-II (aa1-385) (human) (UniProt P02768); assay: biolayer interferometry; His-tagged Nanofitin on Ni:NTA biosensors, albumin domain at 250 nM, response at 180 sec
[2] = biological target: human serum albumin domain II (aa189-385) (human) (UniProt P02768); assay: as above
[3] = biological target: Bovine serum albumin (Bovine) (UniProt P02769); assay: biolayer interferometry, cross reactivity pattern (graded strength of binding)
[4] = biological target: Dog serum albumin (Dog) (UniProt P49822); assay: as above
[5] = biological target: T1, human serum albumin (human, UniProt P02768 25-609, biotinylated (sites not given) in the biolayer interferometry of Example 1); assay: as above
T1 construct: Biotinylated HSA immobilised on streptavidin biosensors; also called HSA

Protein sequences, listed by entry. Tags and fused reporters are not part of them. Lines headed by an entry give the natural chain unless they say otherwise; changes in a name come on top. Residues count along the entry.
UniProt P02768: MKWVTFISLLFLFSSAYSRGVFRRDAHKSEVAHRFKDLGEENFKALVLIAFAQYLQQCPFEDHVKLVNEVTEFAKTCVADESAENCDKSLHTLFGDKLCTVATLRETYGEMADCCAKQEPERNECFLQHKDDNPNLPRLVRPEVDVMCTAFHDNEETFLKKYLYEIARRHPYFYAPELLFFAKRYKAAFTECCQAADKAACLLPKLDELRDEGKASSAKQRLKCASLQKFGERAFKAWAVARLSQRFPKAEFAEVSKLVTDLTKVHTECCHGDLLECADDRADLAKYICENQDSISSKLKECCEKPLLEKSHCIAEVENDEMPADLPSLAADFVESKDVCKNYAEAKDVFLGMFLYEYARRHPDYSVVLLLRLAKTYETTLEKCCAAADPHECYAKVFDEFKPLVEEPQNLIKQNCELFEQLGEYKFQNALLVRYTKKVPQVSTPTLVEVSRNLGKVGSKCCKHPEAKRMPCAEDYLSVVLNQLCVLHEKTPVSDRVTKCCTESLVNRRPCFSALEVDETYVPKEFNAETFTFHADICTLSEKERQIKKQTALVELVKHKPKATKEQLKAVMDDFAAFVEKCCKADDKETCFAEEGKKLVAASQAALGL
human serum albumin Domain I-II (aa1-385): residues 25-409 of P02768
human serum albumin domain II (aa189-385): residues 213-409 of P02768
UniProt P02769, residues 25-607: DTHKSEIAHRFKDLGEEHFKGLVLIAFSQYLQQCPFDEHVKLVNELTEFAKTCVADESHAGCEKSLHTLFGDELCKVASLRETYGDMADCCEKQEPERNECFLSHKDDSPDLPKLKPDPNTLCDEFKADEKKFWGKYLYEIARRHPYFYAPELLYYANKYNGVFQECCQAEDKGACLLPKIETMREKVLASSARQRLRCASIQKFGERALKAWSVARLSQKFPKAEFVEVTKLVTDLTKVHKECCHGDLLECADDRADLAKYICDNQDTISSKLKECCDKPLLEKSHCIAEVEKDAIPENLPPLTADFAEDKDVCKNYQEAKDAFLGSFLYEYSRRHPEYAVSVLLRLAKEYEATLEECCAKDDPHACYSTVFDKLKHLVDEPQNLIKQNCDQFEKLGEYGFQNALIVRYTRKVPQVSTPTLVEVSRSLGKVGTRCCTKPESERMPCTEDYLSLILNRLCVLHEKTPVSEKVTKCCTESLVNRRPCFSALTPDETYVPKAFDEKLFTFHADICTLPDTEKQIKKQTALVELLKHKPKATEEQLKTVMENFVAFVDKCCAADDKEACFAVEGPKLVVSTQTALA
UniProt P49822, residues 25-608: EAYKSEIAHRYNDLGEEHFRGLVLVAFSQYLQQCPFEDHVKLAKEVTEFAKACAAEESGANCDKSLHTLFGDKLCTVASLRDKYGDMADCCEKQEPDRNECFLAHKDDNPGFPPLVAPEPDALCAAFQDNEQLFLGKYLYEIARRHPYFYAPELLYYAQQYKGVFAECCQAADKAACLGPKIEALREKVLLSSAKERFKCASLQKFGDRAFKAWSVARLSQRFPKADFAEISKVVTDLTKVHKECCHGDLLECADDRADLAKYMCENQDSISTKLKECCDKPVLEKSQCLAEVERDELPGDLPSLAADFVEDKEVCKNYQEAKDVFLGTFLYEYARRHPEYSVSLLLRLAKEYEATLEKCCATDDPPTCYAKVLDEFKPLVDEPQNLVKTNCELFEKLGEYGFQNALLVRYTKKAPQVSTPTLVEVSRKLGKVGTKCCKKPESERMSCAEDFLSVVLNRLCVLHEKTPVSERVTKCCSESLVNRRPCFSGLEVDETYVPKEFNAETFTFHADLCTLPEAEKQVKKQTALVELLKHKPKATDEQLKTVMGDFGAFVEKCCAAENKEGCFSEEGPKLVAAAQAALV
UniProt P08835, residues 25-607: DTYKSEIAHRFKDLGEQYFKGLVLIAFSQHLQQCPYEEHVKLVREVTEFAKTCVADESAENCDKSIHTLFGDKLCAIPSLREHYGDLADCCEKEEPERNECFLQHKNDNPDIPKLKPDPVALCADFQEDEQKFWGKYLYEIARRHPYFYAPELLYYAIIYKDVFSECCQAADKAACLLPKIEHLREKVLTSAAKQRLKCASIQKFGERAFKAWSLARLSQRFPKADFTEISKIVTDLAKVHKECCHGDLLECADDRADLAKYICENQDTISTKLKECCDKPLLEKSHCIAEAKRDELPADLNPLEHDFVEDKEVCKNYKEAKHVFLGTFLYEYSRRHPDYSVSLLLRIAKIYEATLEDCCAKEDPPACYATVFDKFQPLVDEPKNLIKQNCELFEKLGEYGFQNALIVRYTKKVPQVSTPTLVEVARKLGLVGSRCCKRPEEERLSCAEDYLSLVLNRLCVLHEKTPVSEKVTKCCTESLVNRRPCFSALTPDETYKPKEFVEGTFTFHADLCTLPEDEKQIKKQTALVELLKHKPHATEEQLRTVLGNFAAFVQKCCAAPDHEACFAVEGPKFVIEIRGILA
UniProt P07724, residues 25-608: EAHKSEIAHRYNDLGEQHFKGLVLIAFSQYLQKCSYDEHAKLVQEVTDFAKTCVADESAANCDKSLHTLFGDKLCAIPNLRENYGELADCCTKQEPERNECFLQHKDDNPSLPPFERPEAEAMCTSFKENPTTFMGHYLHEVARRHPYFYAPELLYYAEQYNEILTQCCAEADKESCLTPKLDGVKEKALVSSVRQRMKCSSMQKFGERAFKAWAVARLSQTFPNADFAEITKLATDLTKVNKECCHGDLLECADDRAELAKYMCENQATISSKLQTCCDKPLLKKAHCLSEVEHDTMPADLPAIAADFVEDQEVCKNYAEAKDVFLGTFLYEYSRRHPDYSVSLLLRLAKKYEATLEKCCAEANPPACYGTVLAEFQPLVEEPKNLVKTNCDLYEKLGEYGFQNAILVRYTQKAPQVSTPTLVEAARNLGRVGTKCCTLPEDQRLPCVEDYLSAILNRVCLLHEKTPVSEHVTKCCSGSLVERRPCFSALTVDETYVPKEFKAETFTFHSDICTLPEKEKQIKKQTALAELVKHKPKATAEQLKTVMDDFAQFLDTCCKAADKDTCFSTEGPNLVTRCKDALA
UniProt P02770, residues 25-608: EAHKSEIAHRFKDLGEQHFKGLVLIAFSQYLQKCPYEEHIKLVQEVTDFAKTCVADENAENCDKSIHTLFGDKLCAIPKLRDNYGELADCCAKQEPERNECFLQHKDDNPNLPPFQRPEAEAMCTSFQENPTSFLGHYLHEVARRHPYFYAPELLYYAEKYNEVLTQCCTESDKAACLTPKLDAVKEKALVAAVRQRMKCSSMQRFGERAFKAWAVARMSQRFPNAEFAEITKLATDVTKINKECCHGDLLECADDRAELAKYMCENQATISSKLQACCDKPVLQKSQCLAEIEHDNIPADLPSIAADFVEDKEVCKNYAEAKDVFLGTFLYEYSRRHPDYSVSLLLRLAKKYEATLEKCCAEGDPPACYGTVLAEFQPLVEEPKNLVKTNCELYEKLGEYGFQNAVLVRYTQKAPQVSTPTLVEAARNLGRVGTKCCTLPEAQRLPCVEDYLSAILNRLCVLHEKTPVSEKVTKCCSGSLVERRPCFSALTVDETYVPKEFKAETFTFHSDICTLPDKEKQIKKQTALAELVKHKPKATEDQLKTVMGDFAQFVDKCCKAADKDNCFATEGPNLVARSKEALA
UniProt A2V9Z4, residues 25-608: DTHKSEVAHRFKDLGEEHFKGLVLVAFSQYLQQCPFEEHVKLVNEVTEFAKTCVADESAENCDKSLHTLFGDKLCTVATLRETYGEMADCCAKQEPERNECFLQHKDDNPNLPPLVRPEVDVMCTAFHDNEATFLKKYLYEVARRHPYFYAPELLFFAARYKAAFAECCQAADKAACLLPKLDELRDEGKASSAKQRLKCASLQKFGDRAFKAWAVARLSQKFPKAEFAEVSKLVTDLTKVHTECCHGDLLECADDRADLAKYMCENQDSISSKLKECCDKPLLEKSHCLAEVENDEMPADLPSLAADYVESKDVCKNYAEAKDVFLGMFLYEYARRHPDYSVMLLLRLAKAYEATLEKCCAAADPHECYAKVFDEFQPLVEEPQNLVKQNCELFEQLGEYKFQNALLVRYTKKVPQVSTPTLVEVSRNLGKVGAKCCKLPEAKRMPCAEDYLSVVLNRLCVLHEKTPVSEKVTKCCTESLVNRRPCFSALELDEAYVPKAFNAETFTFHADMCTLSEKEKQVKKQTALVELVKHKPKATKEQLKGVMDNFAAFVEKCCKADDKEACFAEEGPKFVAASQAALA

[6] = biological target: Porcine serum albumin (Porcine) (UniProt P08835); assay: as above
[7] = biological target: T1, human serum albumin; assay: biolayer interferometry at pH 7.4 and pH 6
[8] = biological target: Bovine serum albumin (Bovine) (UniProt P02769); assay: biolayer interferometry, conditions similar to those for HSA
[9] = biological target: T2, Mouse serum albumin (Mouse, UniProt P07724 25-608); assay: as above
T2 construct: also called MSA

[10] = biological target: Dog serum albumin (Dog) (UniProt P49822); assay: as above
[11] = biological target: Porcine serum albumin (Porcine) (UniProt P08835); assay: as above
[12] = biological target: T3, Rat serum albumin (Rat, UniProt P02770 25-608); assay: as above
T3 construct: also called RSA

[13] = biological target: T4, Cynomolgus monkey serum albumin (Cynomolgus monkey, UniProt A2V9Z4 25-608); assay: as above
T4 construct: also called CSA

[14] = biological target: T1, human serum albumin; assay: biolayer interferometry, biotinylated HSA on streptavidin biosensors, F06 in solution at 15.6 to 1000 nM, 180 s association and 180 s dissociation
[15] = biological target: human serum albumin Domain I-II (aa1-385) (human) (UniProt P02768); assay: biolayer interferometry, His-tagged F06 on Ni-NTA biosensors, albumin domain at 250 nM, response at 180 s
[16] = biological target: human serum albumin domain II (aa189-385) (human) (UniProt P02768); assay: as above
[17] = biological target: T2, Mouse serum albumin; assay: biolayer interferometry, cross reactivity pattern (graded strength of binding)
[18] = biological target: T3, Rat serum albumin; assay: as above
[19] = biological target: T4, Cynomolgus monkey serum albumin; assay: as above

binding [1]: binds
binding [2]: binds
binding [3]: binds
binding [4]: binds
binding [5]: binds
binding [6]: binds
binding [7]: binds
binding [8]: binds
binding [9]: binds
binding [10]: binds
binding [11]: binds
binding [12]: binds
binding [13]: binds
binding [14]: binds
binding [15]: binds
binding [16]: binds
binding [17]: binds
binding [18]: binds
binding [19]: binds
B1: Nanofitin F06 (designed binder)
chain: VKVKFVFSGEEKEVETSKIKWVLRWGKAVGFKYDDQGKIGYGFVAEKDAPKELLDMLARAEREK
notes: also called anti-albumin Nanofitin

From patent US20240124531A1, “COMPOUNDS AND METHODS FOR EXTENDING HALF LIFE OF BIOMOLECULES” (AFFILOGIC, priority 2021, published 2024)
